For the assay, the target named is DNA methyltransferase DNMT1 (mouse (endogenous in iGB cells from mouse splenic B cells)) (UniProt P13864). The experiment in a line: co-IP.

The chains behind the UniProt entries cited, without tags or fusion partners.
UniProt P13864: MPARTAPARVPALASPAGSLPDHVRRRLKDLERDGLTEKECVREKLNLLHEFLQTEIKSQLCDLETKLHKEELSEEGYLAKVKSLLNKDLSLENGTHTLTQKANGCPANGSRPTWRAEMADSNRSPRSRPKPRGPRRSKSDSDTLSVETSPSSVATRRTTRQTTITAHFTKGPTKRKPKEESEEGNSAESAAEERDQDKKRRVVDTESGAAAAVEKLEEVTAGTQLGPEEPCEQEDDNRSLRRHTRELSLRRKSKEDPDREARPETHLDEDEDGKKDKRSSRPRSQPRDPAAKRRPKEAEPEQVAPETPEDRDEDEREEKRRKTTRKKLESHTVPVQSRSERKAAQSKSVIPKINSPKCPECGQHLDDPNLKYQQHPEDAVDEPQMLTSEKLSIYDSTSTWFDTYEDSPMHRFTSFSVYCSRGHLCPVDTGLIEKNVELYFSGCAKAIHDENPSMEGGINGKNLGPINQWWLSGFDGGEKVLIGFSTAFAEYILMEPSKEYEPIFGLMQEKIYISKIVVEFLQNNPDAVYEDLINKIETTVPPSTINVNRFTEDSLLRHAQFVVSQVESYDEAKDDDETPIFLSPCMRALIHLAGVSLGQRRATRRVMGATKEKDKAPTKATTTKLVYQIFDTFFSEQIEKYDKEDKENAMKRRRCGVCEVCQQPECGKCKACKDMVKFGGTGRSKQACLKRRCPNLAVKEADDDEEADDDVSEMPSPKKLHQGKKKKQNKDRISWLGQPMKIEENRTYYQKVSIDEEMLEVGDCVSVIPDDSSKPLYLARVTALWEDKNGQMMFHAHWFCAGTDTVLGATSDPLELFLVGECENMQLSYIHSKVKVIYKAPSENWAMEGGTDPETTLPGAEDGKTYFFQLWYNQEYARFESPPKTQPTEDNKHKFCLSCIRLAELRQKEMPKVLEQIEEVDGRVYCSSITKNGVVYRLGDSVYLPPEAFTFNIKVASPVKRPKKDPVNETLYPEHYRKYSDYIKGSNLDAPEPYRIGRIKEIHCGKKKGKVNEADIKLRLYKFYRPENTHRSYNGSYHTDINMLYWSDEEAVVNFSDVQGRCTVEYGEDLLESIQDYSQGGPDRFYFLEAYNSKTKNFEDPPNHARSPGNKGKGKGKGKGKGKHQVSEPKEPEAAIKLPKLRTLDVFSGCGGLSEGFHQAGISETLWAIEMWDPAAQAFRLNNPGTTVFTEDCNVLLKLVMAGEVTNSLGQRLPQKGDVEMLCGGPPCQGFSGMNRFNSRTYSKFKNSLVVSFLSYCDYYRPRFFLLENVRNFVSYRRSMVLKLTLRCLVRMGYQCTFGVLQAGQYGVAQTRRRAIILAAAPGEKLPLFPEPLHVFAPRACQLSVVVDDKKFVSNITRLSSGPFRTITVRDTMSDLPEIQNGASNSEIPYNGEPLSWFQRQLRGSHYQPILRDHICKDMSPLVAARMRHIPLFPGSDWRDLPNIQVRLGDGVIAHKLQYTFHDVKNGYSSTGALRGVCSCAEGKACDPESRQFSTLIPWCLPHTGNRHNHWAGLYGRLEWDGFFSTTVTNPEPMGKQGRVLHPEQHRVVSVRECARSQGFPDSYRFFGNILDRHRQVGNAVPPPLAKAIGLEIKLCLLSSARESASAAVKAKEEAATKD
UniProt Q9WVE0: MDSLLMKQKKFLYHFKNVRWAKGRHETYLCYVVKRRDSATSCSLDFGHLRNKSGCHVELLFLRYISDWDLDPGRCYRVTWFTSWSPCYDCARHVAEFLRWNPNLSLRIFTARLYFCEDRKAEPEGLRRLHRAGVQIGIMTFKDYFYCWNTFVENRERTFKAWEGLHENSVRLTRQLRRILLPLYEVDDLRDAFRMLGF

Experimental findings from article doi:10.1101/2025.05.02.651162 are described below.

Results are given in words; binding and its absence hold for the method and conditions named. In cells and extracts the contact can be indirect.

Regarding “Activation-induced cytidine deaminase (AID), wildtype (from UniProt Q9WVE0 1-198)”, the binding result is “no binding”.
